Here are results for one substance from article doi:10.1101/322610.

Sequences of proteins named here, by UniProt entry; tags and fusion partners are left off. A change or cut given only in a name is not applied to a line headed by its entry.
UniProt P10417: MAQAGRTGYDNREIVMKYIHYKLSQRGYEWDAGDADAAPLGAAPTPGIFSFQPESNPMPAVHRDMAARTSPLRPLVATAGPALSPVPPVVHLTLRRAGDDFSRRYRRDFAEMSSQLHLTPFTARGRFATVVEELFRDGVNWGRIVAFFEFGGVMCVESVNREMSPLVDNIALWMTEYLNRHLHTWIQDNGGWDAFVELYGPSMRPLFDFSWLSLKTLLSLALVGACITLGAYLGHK
UniProt P06537: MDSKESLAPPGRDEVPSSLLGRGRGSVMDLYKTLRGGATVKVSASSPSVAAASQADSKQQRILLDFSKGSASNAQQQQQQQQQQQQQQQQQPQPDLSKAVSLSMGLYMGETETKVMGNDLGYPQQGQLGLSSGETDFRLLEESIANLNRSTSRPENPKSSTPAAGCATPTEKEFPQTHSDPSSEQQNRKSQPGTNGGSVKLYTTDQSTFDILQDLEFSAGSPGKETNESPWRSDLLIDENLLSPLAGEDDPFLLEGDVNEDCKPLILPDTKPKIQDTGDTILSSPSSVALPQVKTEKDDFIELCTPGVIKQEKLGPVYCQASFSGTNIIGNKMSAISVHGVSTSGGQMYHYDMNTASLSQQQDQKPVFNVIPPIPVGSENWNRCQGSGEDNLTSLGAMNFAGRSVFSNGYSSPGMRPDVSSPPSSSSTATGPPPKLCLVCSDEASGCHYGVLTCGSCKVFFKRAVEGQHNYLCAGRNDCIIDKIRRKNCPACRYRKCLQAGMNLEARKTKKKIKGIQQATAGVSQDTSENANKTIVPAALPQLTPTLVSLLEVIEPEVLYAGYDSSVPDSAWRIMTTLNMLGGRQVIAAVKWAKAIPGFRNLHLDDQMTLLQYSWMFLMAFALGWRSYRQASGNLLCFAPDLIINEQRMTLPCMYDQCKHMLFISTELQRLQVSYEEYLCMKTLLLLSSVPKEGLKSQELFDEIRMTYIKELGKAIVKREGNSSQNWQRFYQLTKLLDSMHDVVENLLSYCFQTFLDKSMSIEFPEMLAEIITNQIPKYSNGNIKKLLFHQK
UniProt Q60932: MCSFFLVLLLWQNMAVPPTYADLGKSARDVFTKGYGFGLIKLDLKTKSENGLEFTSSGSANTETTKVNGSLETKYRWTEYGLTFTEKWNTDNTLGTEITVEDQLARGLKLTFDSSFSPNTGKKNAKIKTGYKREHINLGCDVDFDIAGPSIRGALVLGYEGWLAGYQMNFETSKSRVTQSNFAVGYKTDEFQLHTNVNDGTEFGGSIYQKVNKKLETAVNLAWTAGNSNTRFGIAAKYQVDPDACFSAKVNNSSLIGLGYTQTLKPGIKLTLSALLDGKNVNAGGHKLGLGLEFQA

For experiment [1], the target named is Bcl-2 (mouse) (mouse (endogenous in hippocampus)) (UniProt P10417). The experiment can be described thus: co-IP.
The target in experiment [2] is glucocorticoid receptor (mouse) (mouse (endogenous in hippocampus)) (UniProt P06537). In words: co-IP.

No constants are given. Whether binding was seen depends on the method and setting. In cells and extracts the contact can be indirect. Binding calls can cover weak binding; strength is not graded here.

Regarding “voltage-dependent anion-selective channel 1 (mouse) (from UniProt Q60932)”, the binding result in experiment [1] and in experiment [2] was “binds” throughout.
